Reference: doi:10.1101/2021.02.18.431817

Amino acid sequences for entries named in this document (tags omitted). A change or cut given only in a name is not applied to a line headed by its entry.
UniProt Q9FX54: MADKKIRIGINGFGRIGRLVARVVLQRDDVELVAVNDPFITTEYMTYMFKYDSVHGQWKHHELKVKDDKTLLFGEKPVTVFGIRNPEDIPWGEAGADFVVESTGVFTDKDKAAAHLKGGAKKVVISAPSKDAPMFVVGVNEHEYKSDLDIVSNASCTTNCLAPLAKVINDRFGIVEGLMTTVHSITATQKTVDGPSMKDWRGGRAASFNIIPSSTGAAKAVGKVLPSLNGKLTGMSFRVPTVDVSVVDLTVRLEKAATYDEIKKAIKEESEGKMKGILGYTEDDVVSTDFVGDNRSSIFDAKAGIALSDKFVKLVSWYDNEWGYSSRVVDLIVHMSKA

Molecular target: GAPC2 (leaf extract, MALDI-TOF) (Arabidopsis thaliana) (UniProt Q9FX54)
Experiment: pull-down, MALDI-TOF
Conditions: protein in an extract

AUAUAUUCUCCGGAGAA [M1-RNA (consensus)]: binds.

Construct, isoform or probe ends are uncertain for at least one entry. At least one result comes from cells or an extract, where the contact may be indirect.
